Assay results as given in the supplement of paper PMC7666118.
Some of the results follow.

Sequences of proteins named here, by UniProt entry; tags and fusion partners are left off. A change or cut given only in a name is not applied to a line headed by its entry.
UniProt Q13576: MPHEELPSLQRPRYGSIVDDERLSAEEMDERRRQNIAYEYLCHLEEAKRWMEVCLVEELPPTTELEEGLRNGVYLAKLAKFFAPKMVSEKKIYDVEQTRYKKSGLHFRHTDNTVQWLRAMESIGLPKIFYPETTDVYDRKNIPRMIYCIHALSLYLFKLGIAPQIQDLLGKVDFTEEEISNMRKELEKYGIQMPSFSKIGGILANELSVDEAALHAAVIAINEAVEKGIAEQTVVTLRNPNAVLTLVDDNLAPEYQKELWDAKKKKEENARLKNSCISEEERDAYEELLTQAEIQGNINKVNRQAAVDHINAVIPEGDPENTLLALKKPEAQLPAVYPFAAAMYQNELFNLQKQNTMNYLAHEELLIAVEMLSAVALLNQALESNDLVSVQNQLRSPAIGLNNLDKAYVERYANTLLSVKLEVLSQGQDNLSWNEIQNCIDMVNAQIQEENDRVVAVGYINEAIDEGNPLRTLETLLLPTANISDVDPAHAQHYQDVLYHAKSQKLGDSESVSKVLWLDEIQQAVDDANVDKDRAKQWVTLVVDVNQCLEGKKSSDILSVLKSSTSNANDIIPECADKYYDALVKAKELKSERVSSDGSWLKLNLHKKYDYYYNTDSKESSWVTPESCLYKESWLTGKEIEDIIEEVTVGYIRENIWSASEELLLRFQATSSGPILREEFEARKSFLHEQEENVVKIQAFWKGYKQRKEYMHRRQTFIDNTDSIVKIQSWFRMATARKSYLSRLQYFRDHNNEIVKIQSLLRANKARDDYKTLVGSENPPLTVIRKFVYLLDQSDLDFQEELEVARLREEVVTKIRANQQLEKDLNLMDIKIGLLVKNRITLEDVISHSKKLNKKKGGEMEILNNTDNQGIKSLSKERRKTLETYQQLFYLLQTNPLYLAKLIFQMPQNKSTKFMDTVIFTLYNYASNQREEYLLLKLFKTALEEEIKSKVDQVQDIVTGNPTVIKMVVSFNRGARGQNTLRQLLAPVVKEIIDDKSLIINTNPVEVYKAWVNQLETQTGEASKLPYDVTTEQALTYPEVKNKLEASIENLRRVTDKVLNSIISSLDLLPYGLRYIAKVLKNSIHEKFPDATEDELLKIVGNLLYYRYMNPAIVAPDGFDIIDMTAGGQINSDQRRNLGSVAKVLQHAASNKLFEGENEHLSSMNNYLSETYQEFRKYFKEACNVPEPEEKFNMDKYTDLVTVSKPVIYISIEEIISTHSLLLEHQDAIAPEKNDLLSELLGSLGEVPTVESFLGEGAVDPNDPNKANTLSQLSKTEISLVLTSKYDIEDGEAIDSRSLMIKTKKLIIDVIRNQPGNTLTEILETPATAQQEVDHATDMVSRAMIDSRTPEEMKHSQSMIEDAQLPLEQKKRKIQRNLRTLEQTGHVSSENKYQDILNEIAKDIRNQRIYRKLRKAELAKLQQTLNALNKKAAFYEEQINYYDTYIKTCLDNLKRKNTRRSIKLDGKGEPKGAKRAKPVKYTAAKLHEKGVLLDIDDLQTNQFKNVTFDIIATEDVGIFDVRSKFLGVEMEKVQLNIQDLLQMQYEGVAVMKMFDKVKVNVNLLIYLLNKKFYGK
UniProt Q96CN7: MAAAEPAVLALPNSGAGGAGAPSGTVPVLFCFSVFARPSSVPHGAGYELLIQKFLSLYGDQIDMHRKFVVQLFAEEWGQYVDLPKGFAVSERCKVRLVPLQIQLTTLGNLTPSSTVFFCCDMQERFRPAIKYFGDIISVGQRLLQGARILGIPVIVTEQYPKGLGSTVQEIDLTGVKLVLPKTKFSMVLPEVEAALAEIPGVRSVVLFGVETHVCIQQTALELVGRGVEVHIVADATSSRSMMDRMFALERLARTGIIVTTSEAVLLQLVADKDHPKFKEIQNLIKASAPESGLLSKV
UniProt Q6YN16: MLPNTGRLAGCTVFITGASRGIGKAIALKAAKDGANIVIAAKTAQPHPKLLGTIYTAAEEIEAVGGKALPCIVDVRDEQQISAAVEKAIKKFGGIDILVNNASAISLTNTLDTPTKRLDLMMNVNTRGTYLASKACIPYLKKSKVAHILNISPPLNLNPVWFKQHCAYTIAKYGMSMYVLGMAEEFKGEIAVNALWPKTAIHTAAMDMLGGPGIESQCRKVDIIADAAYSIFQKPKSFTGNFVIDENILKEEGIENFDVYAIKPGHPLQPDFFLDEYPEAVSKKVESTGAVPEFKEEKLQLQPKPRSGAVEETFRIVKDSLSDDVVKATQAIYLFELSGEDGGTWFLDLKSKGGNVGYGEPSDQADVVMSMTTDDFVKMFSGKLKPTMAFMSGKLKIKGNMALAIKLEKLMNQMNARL
UniProt P17275: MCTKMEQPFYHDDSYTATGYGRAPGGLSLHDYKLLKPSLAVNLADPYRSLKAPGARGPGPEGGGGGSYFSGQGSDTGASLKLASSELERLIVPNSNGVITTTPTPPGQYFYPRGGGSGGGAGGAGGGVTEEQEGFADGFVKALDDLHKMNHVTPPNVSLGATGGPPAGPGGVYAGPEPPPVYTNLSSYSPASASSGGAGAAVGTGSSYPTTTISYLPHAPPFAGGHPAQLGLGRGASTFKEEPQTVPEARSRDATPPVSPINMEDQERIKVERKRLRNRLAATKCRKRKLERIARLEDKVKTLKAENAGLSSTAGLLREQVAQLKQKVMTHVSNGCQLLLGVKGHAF
UniProt Q8IY31, whole entry: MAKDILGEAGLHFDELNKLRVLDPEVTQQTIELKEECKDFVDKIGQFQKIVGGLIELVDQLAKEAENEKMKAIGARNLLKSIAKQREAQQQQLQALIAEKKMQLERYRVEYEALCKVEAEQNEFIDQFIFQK
UniProt O75164: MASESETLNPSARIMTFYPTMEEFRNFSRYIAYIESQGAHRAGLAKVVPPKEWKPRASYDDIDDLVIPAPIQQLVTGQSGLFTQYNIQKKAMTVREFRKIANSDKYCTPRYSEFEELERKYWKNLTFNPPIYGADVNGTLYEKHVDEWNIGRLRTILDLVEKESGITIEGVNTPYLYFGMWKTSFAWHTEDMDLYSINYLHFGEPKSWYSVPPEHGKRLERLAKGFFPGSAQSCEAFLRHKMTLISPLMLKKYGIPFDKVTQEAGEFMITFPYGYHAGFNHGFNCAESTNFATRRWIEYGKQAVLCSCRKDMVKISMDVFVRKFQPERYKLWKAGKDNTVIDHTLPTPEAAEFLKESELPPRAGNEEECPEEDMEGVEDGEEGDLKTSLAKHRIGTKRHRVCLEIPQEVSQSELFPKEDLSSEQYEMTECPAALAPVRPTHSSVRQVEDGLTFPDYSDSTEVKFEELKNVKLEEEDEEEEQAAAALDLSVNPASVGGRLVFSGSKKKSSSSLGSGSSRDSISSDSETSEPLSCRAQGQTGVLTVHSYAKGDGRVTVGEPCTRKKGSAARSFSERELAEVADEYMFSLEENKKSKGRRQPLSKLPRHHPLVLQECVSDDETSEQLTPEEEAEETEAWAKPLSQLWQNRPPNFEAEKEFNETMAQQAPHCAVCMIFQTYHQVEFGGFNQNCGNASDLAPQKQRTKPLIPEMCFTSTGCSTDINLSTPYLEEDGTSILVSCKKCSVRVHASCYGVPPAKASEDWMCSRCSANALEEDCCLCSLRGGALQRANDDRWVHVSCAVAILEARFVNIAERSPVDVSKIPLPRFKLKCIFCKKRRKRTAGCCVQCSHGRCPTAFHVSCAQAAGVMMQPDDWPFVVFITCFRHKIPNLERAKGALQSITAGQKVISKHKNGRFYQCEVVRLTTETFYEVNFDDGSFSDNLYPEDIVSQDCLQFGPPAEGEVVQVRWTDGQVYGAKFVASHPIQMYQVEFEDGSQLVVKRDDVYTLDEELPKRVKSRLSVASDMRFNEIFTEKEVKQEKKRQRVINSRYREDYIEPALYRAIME
UniProt Q9Y287, whole entry, looked up: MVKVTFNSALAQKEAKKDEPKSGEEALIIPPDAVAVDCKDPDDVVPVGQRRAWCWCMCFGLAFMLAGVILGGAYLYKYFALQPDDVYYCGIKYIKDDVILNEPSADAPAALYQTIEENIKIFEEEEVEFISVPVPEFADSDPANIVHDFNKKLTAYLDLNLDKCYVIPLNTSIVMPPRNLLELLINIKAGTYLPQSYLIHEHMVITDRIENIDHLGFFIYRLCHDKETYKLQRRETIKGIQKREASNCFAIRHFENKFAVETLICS
UniProt P31785: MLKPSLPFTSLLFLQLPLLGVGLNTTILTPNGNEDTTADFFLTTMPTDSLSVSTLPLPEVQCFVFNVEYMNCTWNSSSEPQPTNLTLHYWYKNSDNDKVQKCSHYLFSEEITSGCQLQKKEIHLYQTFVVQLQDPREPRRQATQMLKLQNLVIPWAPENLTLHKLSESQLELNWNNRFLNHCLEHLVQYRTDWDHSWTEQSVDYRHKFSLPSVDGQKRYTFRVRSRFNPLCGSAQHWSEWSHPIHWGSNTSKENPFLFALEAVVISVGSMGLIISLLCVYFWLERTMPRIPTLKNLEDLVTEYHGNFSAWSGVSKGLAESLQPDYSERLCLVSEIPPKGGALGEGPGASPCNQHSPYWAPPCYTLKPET
UniProt Q9UK53: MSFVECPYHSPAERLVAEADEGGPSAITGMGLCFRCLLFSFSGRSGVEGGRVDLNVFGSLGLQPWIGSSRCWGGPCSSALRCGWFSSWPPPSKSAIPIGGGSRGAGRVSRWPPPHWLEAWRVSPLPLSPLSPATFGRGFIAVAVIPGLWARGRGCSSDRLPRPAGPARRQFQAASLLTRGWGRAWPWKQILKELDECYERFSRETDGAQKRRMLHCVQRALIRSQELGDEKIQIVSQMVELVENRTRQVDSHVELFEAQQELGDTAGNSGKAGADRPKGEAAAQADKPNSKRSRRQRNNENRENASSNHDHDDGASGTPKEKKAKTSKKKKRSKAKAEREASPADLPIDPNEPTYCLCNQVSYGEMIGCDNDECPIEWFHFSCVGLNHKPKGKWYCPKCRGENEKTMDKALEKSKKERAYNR
UniProt Q9UGU5: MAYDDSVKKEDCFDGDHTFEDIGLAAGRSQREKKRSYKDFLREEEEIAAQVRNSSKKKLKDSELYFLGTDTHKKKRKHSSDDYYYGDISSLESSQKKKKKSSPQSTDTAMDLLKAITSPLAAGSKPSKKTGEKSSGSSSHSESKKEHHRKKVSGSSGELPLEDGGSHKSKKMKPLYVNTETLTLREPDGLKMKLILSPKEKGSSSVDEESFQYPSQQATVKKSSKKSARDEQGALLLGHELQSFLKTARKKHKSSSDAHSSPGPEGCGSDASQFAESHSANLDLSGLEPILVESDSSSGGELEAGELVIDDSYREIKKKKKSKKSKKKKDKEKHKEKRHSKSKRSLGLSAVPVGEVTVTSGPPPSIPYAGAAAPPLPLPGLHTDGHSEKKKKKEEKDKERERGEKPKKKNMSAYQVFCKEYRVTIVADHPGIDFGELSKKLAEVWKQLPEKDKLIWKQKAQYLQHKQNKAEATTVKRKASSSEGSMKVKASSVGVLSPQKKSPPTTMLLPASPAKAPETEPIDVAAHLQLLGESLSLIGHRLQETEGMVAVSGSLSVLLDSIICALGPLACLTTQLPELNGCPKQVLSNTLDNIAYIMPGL
UniProt P13598: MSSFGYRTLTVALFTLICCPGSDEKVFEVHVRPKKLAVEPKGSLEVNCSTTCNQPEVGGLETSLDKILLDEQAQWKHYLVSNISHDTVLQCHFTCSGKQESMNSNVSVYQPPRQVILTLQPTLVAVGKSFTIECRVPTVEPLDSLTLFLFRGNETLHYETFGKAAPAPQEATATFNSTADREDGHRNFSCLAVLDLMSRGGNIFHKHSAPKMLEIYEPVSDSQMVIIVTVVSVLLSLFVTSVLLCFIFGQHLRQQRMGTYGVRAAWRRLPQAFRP
UniProt P53990, whole entry: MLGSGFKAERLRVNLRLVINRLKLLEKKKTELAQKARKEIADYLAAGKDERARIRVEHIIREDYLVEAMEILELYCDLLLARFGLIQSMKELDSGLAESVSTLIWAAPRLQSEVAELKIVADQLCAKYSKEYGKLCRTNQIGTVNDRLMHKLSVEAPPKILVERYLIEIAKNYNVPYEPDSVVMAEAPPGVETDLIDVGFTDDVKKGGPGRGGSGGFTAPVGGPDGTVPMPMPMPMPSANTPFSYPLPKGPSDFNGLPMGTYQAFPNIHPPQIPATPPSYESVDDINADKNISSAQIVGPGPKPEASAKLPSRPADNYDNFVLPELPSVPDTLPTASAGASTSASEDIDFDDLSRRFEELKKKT
UniProt Q14642: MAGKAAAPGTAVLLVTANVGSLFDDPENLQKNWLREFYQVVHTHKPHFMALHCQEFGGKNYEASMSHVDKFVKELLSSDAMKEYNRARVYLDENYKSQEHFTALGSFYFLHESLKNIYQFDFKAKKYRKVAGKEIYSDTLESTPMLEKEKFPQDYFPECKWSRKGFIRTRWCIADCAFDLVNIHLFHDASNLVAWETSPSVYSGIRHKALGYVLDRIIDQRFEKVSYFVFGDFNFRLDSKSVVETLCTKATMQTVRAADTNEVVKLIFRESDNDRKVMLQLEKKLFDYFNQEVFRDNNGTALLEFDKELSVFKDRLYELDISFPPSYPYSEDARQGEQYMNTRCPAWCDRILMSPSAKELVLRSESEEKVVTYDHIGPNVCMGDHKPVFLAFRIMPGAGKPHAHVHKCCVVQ

These targets were tested with COc1ccc(Cn2ccc3ccc(C(=O)NO)cc32)cc1 (assay: dose-dependent thermal stabilisation call (2D-TPP, DLPTP, 10% FDR) (binary (1 = stabilised)); higher = stabilised by the compound). Conditions: system: HL-60 intact cells; concentration range 0.04-10 µM.

Target | dose-dependent thermal stabilisation call
IFNGR1 (UniProt P15260) | inactive: 0
IQGAP2 (UniProt Q13576) | inactive: 0
IMP3 (UniProt Q9NV31) | inactive: 0
HNRNPUL1 (UniProt Q9BUJ2) | inactive: 0
ISOC1 (UniProt Q96CN7) | inactive: 0
INSR (UniProt P06213) | inactive: 0
HNRNPK (UniProt P61978) | inactive: 0
HSDL2 (UniProt Q6YN16) | inactive: 0
IKBKAP (UniProt O95163) | inactive: 0
JUNB (UniProt P17275) | inactive: 0
ISOC2 (UniProt Q96AB3) | inactive: 0
IFT20 (UniProt Q8IY31) | inactive: 0
JMJD2A (UniProt O75164) | inactive: 0
KDELC1 (UniProt Q6UW63) | inactive: 0
ITGB2 (UniProt P05107) | inactive: 0
ITPR1 (UniProt Q14643) | inactive: 0
KIAA0564 (UniProt A3KMH1) | inactive: 0
ITM2B (UniProt Q9Y287) | inactive: 0
HNRPA1L-2 | inactive: 0

Target | dose-dependent thermal stabilisation call
INPP1 (UniProt P49441) | inactive: 0
IRAK3 (UniProt Q9Y616) | inactive: 0
IL2RG (UniProt P31785) | inactive: 0
ING1 (UniProt Q9UK53) | inactive: 0
HMGXB4 (UniProt Q9UGU5) | inactive: 0
KIAA0100 (UniProt Q14667) | inactive: 0
ISG20L2 (UniProt Q9H9L3) | inactive: 0
ICAM2 (UniProt P13598) | inactive: 0
IFT81 (UniProt Q8WYA0) | inactive: 0
KIAA0196 (UniProt Q12768) | inactive: 0
IGF2BP1 (UniProt Q9NZI8) | inactive: 0
KIAA0174 (UniProt P53990) | inactive: 0
IER3IP1 (UniProt Q9Y5U9) | inactive: 0
IARS (UniProt P41252) | inactive: 0
INPP5A (UniProt Q14642) | inactive: 0
KHDRBS3 (UniProt O75525) | inactive: 0
IKIP (UniProt Q70UQ0) | inactive: 0
ITFG2 (UniProt Q969R8) | inactive: 0

Reformatted field by field: entries from further up
INPP5A (UniProt Q14642)
  dose-dependent thermal stabilisation call: inactive: 0
KHDRBS3 (UniProt O75525)
  dose-dependent thermal stabilisation call: inactive: 0
